No constants are given. Whether binding was seen depends on the method and setting. In cells and extracts the contact can be indirect. Some binding calls cover weakened binding; strength is not graded here. Where a sequence is shown, tags or fusion partners need not be part of it. Values belong to the molecule of their own block, whether it stands above or below them.
Molecular target: T1, ANT3-Flag (human) (UniProt P12236)
T1 sequence: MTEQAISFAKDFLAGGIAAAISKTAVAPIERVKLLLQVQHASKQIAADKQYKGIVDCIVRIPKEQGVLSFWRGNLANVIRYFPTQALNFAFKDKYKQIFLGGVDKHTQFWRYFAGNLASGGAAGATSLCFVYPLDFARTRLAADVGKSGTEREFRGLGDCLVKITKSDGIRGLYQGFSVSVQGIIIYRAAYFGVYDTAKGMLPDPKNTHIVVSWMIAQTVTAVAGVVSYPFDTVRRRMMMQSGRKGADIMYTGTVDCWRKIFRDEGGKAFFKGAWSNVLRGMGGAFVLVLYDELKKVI
Test: co-IP; HEK293T cells transfected with ANT3-Flag, Timm10-HA / Timm22-HA / Tomm20-HA, or both; lysates immunoprecipitated with anti-Flag; immunoblot with anti-HA and anti-Flag; lysis in NETN (100 mM NaCl, 20 mM Tris-HCl, 0.5 mM EDTA, 0.5% NP40), protein A/G beads, 4°C overnight

Sequences of proteins named here, by UniProt entry; tags and fusion partners are left off.
UniProt Q15388: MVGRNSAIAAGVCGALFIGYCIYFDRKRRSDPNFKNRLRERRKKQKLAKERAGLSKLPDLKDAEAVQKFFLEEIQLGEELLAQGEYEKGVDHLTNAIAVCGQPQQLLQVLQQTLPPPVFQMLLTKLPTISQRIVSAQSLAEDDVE

binding: binds
Molecule: Tomm20-HA (from UniProt Q15388 1-145)

binding: binds
B1: Timm22-HA (protein, UniProt Q9Y584 1-194)
chain: MAAAAPNAGGSAPETAGSAEAPLQYSLLLQYLVGDKRQPRLLEPGSLGGIPSPAKSEEQKMIEKAMESCAFKAALACVGGFVLGGAFGVFTAGIDTNVGFDPKDPYRTPTAKEVLKDMGQRGMSYAKNFAIVGAMFSCTECLIESYRGTSDWKNSVISGCITGGAIGFRAGLKAGAIGCGGFAAFSAAIDYYLR
